Experimental data from PubChem BioAssay AID493014 (National Center for Advancing Translational Sciences (NCATS), 2011).
The other results are listed elsewhere or left out. Shown are side measurements of this screen, not its main read-out; they come without a call. Most of these compounds were active or inconclusive in the main read-out, so they are no random draw. The note in brackets gives the kind of curve behind each potency; many fits are weak.

Assay: qHTS Assay to Find Inhibitors of Chronic Active B-Cell Receptor Signaling
Details: ABC-DLBCL IkBa-CBG/CBR reporter, luminescence ratio (green luciferase fused to IkBa over red control in TMD8 lymphoma cells), 4 h
In short: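 Cell line TMD8 (human ABC DLBCL), stably expressing tet-inducible CBG68-IkBa fusion and CBR; IMDM/0.5% FBS; cpd up to 46 uM; dox induction, 4 h, 37C/5% CO2; dual luminescence; green/red ratio; MG132 control.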

[1] = measured here: CBR red luminescence, cell number

SMILES | AC50 [1] | AC50 (measured here: IkBa-CBG green luminescence)
COc1ccccc1N=Nc1c(O)[nH]c(=S)[nH]c1=O | 14.1 µM [falling, partial curve] | –
CN(C)C(=O)Oc1ccc(-c2cn3cc(C(F)(F)F)ccc3n2)cc1 | 10.3 µM [rising, partial curve] | –
O=C(c1ccccc1)C1NC1c1ccccc1 (centres undefined) | 15.8 µM [falling, single point] | –
Cc1ccc(N(C)C(=O)Oc2cccc3cccnc23)cc1 | 0.206 µM [rising, full curve, poor fit] | –
C=CCN1C(=O)C2(C(C(=O)OCC)=C(N)Oc3c2c(=O)oc2ccccc32)c2ccccc21 (centres undefined) | 2.91 µM [falling, partial curve, poor fit] | –
CCCNc1oc(-c2cccc3ccccc23)nc1C#N | 29.1 µM [rising, single point] | –
O=P(OC1CCCCC1)(OC1CCCCC1)C(O)c1ccc(Cl)cc1Cl (centres undefined) | 29.1 µM [rising, single point] | –
OC1/C(=C/c2ccc(C(F)(F)F)cc2)N2CCC1CC2 (centres undefined) | 15.8 µM [rising, partial curve, poor fit] | –
CCOP(=O)(OCC)C(Nc1cccc(C(F)(F)F)c1)c1ccc(Br)cc1 (centres undefined) | 29.1 µM [falling, single point] | –
O=C(c1ccccc1)C1CCCN(Cc2nc(-c3cnccn3)no2)C1 (centres undefined) | 35.5 µM [falling, single point] | –
O=C(C[N+]12CCC(CC1)C(CO)C2)c1ccc(Br)cc1 (centres undefined) | 1.78 µM [rising, full curve, poor fit] | –
N#CC1=C(N)C(C#N)(C#N)C(c2ccncc2)C2CN(C(=O)OCc3ccccc3)CC=C12 (centres undefined) | 16.4 µM [falling, single point] | –
CCOc1ccc2nc(NC(=O)c3ccccn3)sc2c1 | 7.94 µM [falling, partial curve] | –
C=CC[C@@H](CC/C=C/C=C/CC/C=C\[C@@H]1CSC([C@@H]2C[C@@H]2C)=N1)OC | 5.8 µM [rising, full curve] | 7.31 µM [falling, partial curve]
O=C(NC1CN2CCC1CC2)c1cccc(Cl)c1 (centres undefined) | 20 µM [rising, partial curve, poor fit] | –
Cc1ccc2c(c1)CC1(CN2C)C(=O)NC(=O)N(c2cc(C)ccc2C)C1=O (centres undefined) | 11.2 µM [rising, partial curve, poor fit] | –
Cc1ccc(-n2c(CNCc3ccc(F)cc3)nc3ccccc3c2=O)cc1 | 11.2 µM [falling, partial curve, poor fit] | –
CCOc1ccc(CNCCc2ccc3c(c2)OCO3)cc1 | 35.5 µM [falling, single point] | –
